{"source": "PubChem BioAssay AID493014", "about": "(National Center for Advancing Translational Sciences (NCATS), 2011)", "note": "Hit rate of the full screen: of about 340,000 compounds, about 170 (0.05%) were called active. This list was built around the results that the source calls inconclusive (neither active nor inactive); the mix of calls is not that of the screen. Calls follow the shape of the dose curve; as a rule, active = well fitted inhibition curve with a large enough effect in the signal ratio, with a control signal flat (not every such curve was filed as active); inconclusive = small, poorly fitted or top-dose-only effect, or effect the other way, or a change in a side signal; inactive = flat fitted curve, though single readings scatter; the % refers to the signal ratio. A potency beside an inconclusive call is a rough fit, not a confirmed value. Potency is read from the fitted curve at half-maximal effect."}
{"assay": "qHTS Assay to Find Inhibitors of Chronic Active B-Cell Receptor Signaling;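 as to activity change, negative = inhibition: plate controls were basal doxycycline-induced cells for no effect and cells given 10 µM MG132 for full effect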", "conditions": "ABC-DLBCL IkBa-CBG/CBR reporter, luminescence ratio (green luciferase fused to IkBa over red control in TMD8 lymphoma cells), 4 h; activity change, negative = inhibition: at 46.1 µM (top of the series)", "summary_of_the_method": "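Concentration-response series (up to 46 uM) were applied to TMD8 dual-reporter cells for 4 h at 37C with doxycycline. Green/red ratio, after filter-overlap correction, defined %Activity; red signal alone was normalised to basal cells and zero luminescence.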"}
{"molecule": "Cc1cccc(Cn2c(C(=O)OC(C)C)cc3c2ccn3C)c1", "activity change, negative = inhibition": "inconclusive: 21.7%"}
{"molecule": "NC(=O)CSc1nnc(NC(=O)c2ccc(Br)o2)s1", "Potency": "inconclusive: 35.5 µM [falling, single point]"}
{"molecule": "COc1ccc(N2CCN(c3nc(NC(C)(C)C)nc(N4CCCCC4)n3)CC2)cc1", "activity change, negative = inhibition": "inconclusive: 15.1%"}
{"molecule": "CCNC(=S)Nc1cccc(S(=O)(=O)NC2=NCCC2)c1", "activity change, negative = inhibition": "inconclusive: 0.438%"}
{"molecule": "O=C(CSc1nnc2c(n1)[nH]c1ccccc12)Nc1ccc2c(c1)OCO2", "activity change, negative = inhibition": "inconclusive: -11.5%"}
{"molecule": "C/C(=N/NC(=O)CNC(=O)/C=C/c1ccccc1)c1ccco1", "activity change, negative = inhibition": "inconclusive: 2.08%"}
{"molecule": "O=C(NCc1nc2ccccc2[nH]1)C1=C[C@H](c2ccccc2)C[C@H](OCc2ccc(CO)cc2)O1", "Potency": "inconclusive: 3.98 µM [falling, partial curve, poor fit]"}
{"molecule": "O=c1c(-c2nc3ccccc3s2)cccn1Cc1ccc(Cl)cc1", "activity change, negative = inhibition": "inconclusive: 10.7%"}
{"molecule": "CCC(C)Nc1nc(OC)nc(N(C)C#N)n1", "note": "(stereo unspecified)", "activity change, negative = inhibition": "inconclusive: -0.739%"}
{"molecule": "Cc1cccc(CN2C(=O)N(c3ccc(C(C)C)cc3)S(=O)(=O)c3ccccc32)c1", "activity change, negative = inhibition": "inactive"}
{"molecule": "COc1ccc(C2/C(=C(/O)c3ccccc3)C(=O)C(=O)N2c2ncccn2)cc1OC", "note": "(stereo unspecified)", "activity change, negative = inhibition": "inconclusive: 13.9%"}
{"molecule": "COc1cc2c(c(OC)c1OC)-c1ccc(N(C)CC(OC)OC)c(=O)cc1[C@@H](NC(C)=O)CC2", "Potency": "inconclusive: 3.16 µM [falling, partial curve, poor fit]"}
{"molecule": "CCCCN(CCCC)C(=O)C1CC=CCC1C(=O)O", "note": "(stereo unspecified)", "Potency": "inconclusive: 15.8 µM [falling, single point]"}
{"molecule": "O=C(CSc1nnc(CNc2ccc(F)cc2)o1)N1c2ccccc2Sc2ccccc21", "activity change, negative = inhibition": "inconclusive: 1.44%"}
{"molecule": "CCOc1ccc(N=C(NC#N)SCC)cc1", "activity change, negative = inhibition": "inconclusive: 6.56%"}
{"molecule": "Cc1sc2ncn(CC(=O)NCC3COc4ccccc4O3)c(=O)c2c1S(=O)(=O)N1CCOCC1", "note": "(stereo unspecified)", "activity change, negative = inhibition": "inconclusive: -3.09%"}
{"molecule": "O=C(O)C1CC(=O)N(c2ccc(OCc3ccccc3)cc2)C1", "note": "(stereo unspecified)", "Potency": "inconclusive: 23.1 µM [falling, partial curve]"}
{"molecule": "CC(C)(C)OC(=O)NCc1ccc(CNC(=O)c2nc[nH]c2C(=O)N2CCN(c3ccccc3)CC2)cc1", "activity change, negative = inhibition": "inactive"}
{"molecule": "COc1ccc(Cc2nc3ccc(C(=O)NCCc4ccncc4)cc3o2)cc1OC", "activity change, negative = inhibition": "inconclusive: 7.66%"}
{"molecule": "Cc1cccc(C)c1OCCCCCNCCO", "activity change, negative = inhibition": "inconclusive: -29.5%"}
{"molecule": "CC(=O)c1cccc(NC(=S)NC(=O)c2cncc(Br)c2)c1", "activity change, negative = inhibition": "inactive"}
{"molecule": "Cc1ccc(NC(=O)CNC2CCCCC2)cc1Cl", "activity change, negative = inhibition": "inactive"}
{"molecule": "O=C1NN(c2ccc(Cl)cc2)C(=O)/C1=C\\c1ccc(-c2cccc(C(=O)O)c2)o1", "activity change, negative = inhibition": "inactive"}
{"molecule": "Cc1ccc(C(=O)OCC(=O)Nc2ccccc2C(F)(F)F)cc1S(=O)(=O)N1CCCCC1", "activity change, negative = inhibition": "inconclusive: -0.415%"}
{"molecule": "CCOC(CCNC(=O)c1cn(CC(C)C)c(=O)c2c1c1ccccc1n2C)OCC", "activity change, negative = inhibition": "inconclusive: 2.58%"}
{"molecule": "O=C(Nc1ccccc1N1CCCC1)c1ccc(Cl)c(S(=O)(=O)N2CCOCC2)c1", "activity change, negative = inhibition": "inconclusive: -8.09%"}
{"molecule": "Cc1cc(C)cc(Nc2ncnc3nc[nH]c23)c1", "Potency": "inconclusive: 12.6 µM [falling, partial curve]"}
{"molecule": "C(=N\\N1CCOCC1)/c1cccs1", "activity change, negative = inhibition": "inconclusive: 1.48%"}
{"molecule": "Cc1cc(C)c(NC(=O)COC(=O)c2cccc3c2C(=O)c2ccccc2C3=O)c(C)c1", "activity change, negative = inhibition": "inconclusive: -3.33%"}
{"molecule": "CCCCCCCCC(=O)N/N=C(\\C)c1ccco1", "activity change, negative = inhibition": "inactive"}
{"molecule": "CC(=O)Nc1ccc(NC(=O)Cc2ccc(-c3ccccc3)cc2)cc1", "activity change, negative = inhibition": "inconclusive: -5.53%"}
{"molecule": "CCC(=O)N1CCN(c2nc(CC)nc3sc4c(c23)CCCC4)CC1", "activity change, negative = inhibition": "inconclusive: 7.62%"}
{"molecule": "CCOC(=O)C1(CC2CC2)CCN(S(=O)(=O)C[C@]23CC[C@H](CC2=O)C3(C)C)CC1", "Potency": "inconclusive: 35.5 µM [rising, single point]"}
{"molecule": "O=C(NC1(O)C(=O)c2ccccc2C1=O)c1c(Cl)cccc1Cl", "activity change, negative = inhibition": "inconclusive: 1.43%"}
{"molecule": "COCCN(CC(=O)Nc1ccccc1C(F)(F)F)C(=O)c1ccc(-n2cccn2)cc1", "activity change, negative = inhibition": "inconclusive: -5.55%"}
{"molecule": "CC1CCCN(C(=O)COC(=O)c2n[nH]c3ccccc23)C1", "note": "(stereo unspecified)", "activity change, negative = inhibition": "inconclusive: -20.8%"}
{"molecule": "Cc1nnc(NC(=O)c2ccc(S(=O)(=O)C(F)F)cc2)s1", "activity change, negative = inhibition": "inconclusive: 6.02%"}
{"molecule": "CC1CN(CCCCOc2ccc3ccccc3c2)CC(C)O1", "note": "(stereo unspecified)", "activity change, negative = inhibition": "inconclusive: 3.67%"}
{"molecule": "Cc1cc(C(=O)CSc2nnc(N)s2)c(C)n1Cc1cccs1", "activity change, negative = inhibition": "inconclusive: -1.96%"}
{"molecule": "COC(=O)c1ccc(NC(=O)c2ccccc2CC[N+](=O)[O-])cc1", "Potency": "inconclusive: 7.08 µM [falling, partial curve, poor fit]"}
{"molecule": "NC(=O)C1CCN(C(=O)C2CC(=O)N(c3ccc4c(c3)OCCO4)C2)CC1", "note": "(stereo unspecified)", "activity change, negative = inhibition": "inactive"}
{"molecule": "Cc1ccc(-c2c3c(nc4sc(C(N)=O)c(N)c24)CCC3)cc1", "activity change, negative = inhibition": "inactive"}
{"molecule": "Cc1ccc(C)c(N2CCN(C(=O)c3cc4ccccn4n3)CC2)c1", "activity change, negative = inhibition": "inactive"}
{"molecule": "COC(=O)COc1ccc(=O)n(-c2ccccc2)n1", "activity change, negative = inhibition": "inconclusive: 1.18%"}
{"molecule": "N#CC1(NC(=O)CN2C(=O)c3ccc([N+](=O)[O-])cc3C2=O)CCCCC1", "activity change, negative = inhibition": "inactive"}
{"molecule": "NC(=O)COC(=O)c1cccc(S(=O)(=O)N2CCN(c3ccccc3)CC2)c1", "activity change, negative = inhibition": "inactive"}
{"molecule": "CCOC(=O)C1(N(CC)CC)Sc2cc(C)ccc2NC1=O", "note": "(stereo unspecified)", "Potency": "inconclusive: 35.5 µM [falling, partial curve, poor fit]"}
{"molecule": "CC(C)=NNc1nc2c(c(=O)n(C)c(=O)n2C)n1CCc1ccccc1", "Potency": "inconclusive: 10 µM [rising, partial curve]"}
{"molecule": "O=C(CCC1CCCN(C(=O)c2ccc3c(c2)OCO3)C1)NCc1ccc(F)c(F)c1", "note": "(stereo unspecified)", "activity change, negative = inhibition": "inactive"}
{"molecule": "C[C@H](CO)N1C[C@H](C)[C@@H](CN(C)S(=O)(=O)c2ccc(F)cc2)Oc2ccc(NC(=O)C3CC3)cc2C1=O", "activity change, negative = inhibition": "inconclusive: -0.067%"}
{"molecule": "O=C(Nc1cccc(S(=O)(=O)N2CCCCC2)c1)c1ccccc1NS(=O)(=O)c1ccc(F)cc1", "Potency": "inconclusive: 9.2 µM [rising, partial curve]"}
{"molecule": "CC1=NN(C(N)=S)C(=O)C1N=Nc1ccc(Cl)cc1", "note": "(stereo unspecified)", "activity change, negative = inhibition": "inactive"}
{"molecule": "CCCCC(=O)Nc1nc(C)c(-c2csc(Nc3ccc(Cl)cc3)n2)s1", "Potency": "inconclusive: 1 µM [rising, full curve, poor fit]"}
{"molecule": "O=C(NN=C1CCCCCCCCCCC1)c1ccncc1", "Potency": "inconclusive: 35.5 µM [falling, single point]"}
{"molecule": "CCOC(=O)N1CCC(Nc2c(NCCN3CCN(c4cccc(Cl)c4)CC3)c(=O)c2=O)CC1", "activity change, negative = inhibition": "inconclusive: 3.27%"}
{"molecule": "CC(C)(c1ccccc1)c1ccc(OCCCNCCO)cc1", "activity change, negative = inhibition": "inactive"}
{"molecule": "O=C(CSCc1ccc(Br)cc1)NCCc1ccccc1", "activity change, negative = inhibition": "inactive"}
{"molecule": "COc1ccc(CCNC(=O)CSc2nnc3ccc(-c4ccncc4)nn23)cc1", "activity change, negative = inhibition": "inconclusive: -0.81%"}
{"molecule": "COc1ccc2cc(C[C@@H]3CC[C@@H](CO)O3)ccc2c1", "activity change, negative = inhibition": "inconclusive: 0.0116%"}
{"molecule": "O=C(O)[C@@H]1CCCN1S(=O)(=O)c1cccc(S(=O)(=O)N2CCC[C@H]2C(=O)O)c1", "activity change, negative = inhibition": "inactive"}
{"molecule": "CCn1ccc(C(=O)N2CCOCC2)n1", "activity change, negative = inhibition": "inconclusive: 5.38%"}
{"molecule": "CC(C)CNc1oc(-c2ccc(F)cc2)nc1C#N", "Potency": "inconclusive: 6.51 µM [rising, partial curve, poor fit]"}
{"molecule": "CCOC(=O)c1c(-c2ccc(C)cc2)csc1NC(=O)c1cc2ccccc2oc1=O", "Potency": "inconclusive: 17.8 µM [falling, partial curve]"}
{"molecule": "O=c1c2ccccc2nc(SCc2ccccc2F)n1C1CCCC1", "activity change, negative = inhibition": "inconclusive: -3.37%"}
{"molecule": "O=C(CS(=O)(=O)c1ccccc1)c1cc2cc(F)ccc2oc1=O", "Potency": "inconclusive: 35.5 µM [falling, single point]"}
{"molecule": "C[n+]1ccc(/C=C/c2c[nH]c3ccc(F)cc23)cc1", "activity change, negative = inhibition": "inactive"}
{"molecule": "COc1ccccc1NC(=O)COC(=O)Cc1ccc(S(=O)(=O)N2CCCCC2)s1", "activity change, negative = inhibition": "inconclusive: 9.65%"}
{"molecule": "Cc1cc(=O)c2ccccc2s1", "activity change, negative = inhibition": "inconclusive: -14%"}
{"molecule": "CSc1ccc(/C=C/C(=O)OCC(=O)NCC2CCCO2)cc1", "note": "(stereo unspecified)", "activity change, negative = inhibition": "inactive"}
{"molecule": "CCc1ccc(-c2cc(N)n(-c3ccccc3)n2)cc1", "activity change, negative = inhibition": "inconclusive: -19.1%"}
{"molecule": "O=C(O)CCCCCNc1ccc2nsnc2c1[N+](=O)[O-]", "Potency": "inconclusive: 23.1 µM [falling, single point]"}
{"molecule": "CC(Sc1n[nH]c(=O)n1Cc1ccccc1)C(=O)NC1CCCCC1C", "note": "(stereo unspecified)", "Potency": "inconclusive: 14.6 µM [falling, partial curve, poor fit]"}
{"molecule": "CC1CCCN(C(=O)C2CCN(c3nc(-c4ccccc4)nc4c3CCC4)CC2)C1", "note": "(stereo unspecified)", "activity change, negative = inhibition": "inconclusive: 0.372%"}
{"molecule": "Cn1c(=O)c([N+](=O)[O-])c(NCC(O)c2ccccc2)c2ccccc21", "note": "(stereo unspecified)", "activity change, negative = inhibition": "inconclusive: 3.02%"}
{"molecule": "CN(C(=O)CSc1nnc(COc2ccccc2F)n1N)C1CCCCC1", "activity change, negative = inhibition": "inactive"}
{"molecule": "CC(C)[C@H](NC(=O)N1CCn2c1nc1ccccc12)C(=O)NCc1ccc(F)cc1", "activity change, negative = inhibition": "inconclusive: 0.318%"}
{"molecule": "CCOC(=O)c1c(-c2cccc([N+](=O)[O-])c2)csc1NC(=O)C1CC1", "activity change, negative = inhibition": "inactive"}
{"molecule": "CC(C)(CNC(=O)c1ccc([N+](=O)[O-])c(Cl)c1)CNC(=O)c1ccc([N+](=O)[O-])c(Cl)c1", "Potency": "inconclusive: 3.98 µM [falling, partial curve, poor fit]"}
{"molecule": "O=C(COC(=O)CNC(=O)c1ccccc1)NCc1ccc2c(c1)OCO2", "activity change, negative = inhibition": "inconclusive: 3.31%"}
{"molecule": "Cc1ccc(-n2nc(C)cc2N)c(C)c1", "activity change, negative = inhibition": "inconclusive: 2.43%"}
{"molecule": "CC(C)n1c(=S)[nH]c2cc(Cl)ccc21", "activity change, negative = inhibition": "inconclusive: -0.0029%"}
